Source: the supplement of paper PMC10849652
Some of the results follow.

Protein sequences, listed by entry. Tags and fused reporters are not part of them. Lines headed by an entry give the natural chain unless they say otherwise; changes in a name come on top.
UniProt Q9UL15: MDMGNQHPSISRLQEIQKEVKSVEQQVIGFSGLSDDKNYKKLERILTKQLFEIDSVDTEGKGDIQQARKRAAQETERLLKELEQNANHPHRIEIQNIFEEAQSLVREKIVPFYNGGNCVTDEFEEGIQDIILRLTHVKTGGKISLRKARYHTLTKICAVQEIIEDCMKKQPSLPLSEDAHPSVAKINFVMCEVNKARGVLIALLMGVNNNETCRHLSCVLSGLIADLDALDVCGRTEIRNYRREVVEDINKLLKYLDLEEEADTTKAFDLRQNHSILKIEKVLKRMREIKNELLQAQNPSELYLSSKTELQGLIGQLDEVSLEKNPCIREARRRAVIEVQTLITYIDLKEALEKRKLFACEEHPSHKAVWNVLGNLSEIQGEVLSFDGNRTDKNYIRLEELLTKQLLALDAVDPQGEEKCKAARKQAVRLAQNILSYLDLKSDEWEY
UniProt O95429: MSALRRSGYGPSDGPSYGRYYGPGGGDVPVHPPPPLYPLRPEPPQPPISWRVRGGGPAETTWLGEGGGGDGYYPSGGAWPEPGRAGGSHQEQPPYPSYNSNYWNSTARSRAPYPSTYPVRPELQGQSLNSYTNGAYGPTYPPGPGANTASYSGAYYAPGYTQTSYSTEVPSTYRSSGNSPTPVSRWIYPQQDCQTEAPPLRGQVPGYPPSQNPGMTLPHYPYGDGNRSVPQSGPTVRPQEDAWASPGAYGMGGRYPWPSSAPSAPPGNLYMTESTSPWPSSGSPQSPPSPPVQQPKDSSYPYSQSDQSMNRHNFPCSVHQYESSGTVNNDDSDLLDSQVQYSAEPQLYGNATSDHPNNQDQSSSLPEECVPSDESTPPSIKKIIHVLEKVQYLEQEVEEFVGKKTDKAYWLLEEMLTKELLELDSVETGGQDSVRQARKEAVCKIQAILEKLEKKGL
UniProt O15392, whole entry, looked up: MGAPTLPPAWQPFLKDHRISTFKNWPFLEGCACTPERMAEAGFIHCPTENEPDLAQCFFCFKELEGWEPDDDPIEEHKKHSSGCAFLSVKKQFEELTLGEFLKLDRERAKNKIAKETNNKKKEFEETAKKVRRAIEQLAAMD
UniProt Q6QNY0: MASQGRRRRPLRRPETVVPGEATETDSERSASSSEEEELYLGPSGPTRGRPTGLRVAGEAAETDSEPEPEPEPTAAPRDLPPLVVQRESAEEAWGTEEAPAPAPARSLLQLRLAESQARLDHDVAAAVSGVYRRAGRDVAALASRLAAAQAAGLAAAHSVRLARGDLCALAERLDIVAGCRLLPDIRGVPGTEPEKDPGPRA
UniProt Q9NY97: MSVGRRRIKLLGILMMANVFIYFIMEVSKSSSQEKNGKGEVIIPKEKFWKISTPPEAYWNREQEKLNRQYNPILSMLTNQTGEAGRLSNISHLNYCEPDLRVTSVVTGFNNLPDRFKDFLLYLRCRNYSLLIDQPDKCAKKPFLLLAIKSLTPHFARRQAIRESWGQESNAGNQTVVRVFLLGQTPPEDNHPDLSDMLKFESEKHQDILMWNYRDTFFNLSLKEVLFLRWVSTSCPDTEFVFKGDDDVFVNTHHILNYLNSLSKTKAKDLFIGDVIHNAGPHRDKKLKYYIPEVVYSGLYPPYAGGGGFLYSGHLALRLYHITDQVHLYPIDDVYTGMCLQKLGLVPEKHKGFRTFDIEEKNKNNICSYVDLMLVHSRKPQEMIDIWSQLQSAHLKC
UniProt Q9BXK5, whole entry, looked up: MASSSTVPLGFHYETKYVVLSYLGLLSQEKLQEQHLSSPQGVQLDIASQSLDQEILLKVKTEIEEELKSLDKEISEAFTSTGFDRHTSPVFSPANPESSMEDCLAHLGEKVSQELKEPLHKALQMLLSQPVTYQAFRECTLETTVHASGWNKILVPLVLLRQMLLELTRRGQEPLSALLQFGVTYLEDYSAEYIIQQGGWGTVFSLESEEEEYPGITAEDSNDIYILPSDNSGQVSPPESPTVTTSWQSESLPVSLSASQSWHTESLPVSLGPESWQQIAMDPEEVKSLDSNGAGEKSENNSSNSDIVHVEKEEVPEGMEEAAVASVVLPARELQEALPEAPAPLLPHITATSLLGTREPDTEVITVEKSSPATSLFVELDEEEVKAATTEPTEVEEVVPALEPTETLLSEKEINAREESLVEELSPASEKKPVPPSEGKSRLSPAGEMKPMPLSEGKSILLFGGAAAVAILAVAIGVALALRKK
UniProt Q9UL45: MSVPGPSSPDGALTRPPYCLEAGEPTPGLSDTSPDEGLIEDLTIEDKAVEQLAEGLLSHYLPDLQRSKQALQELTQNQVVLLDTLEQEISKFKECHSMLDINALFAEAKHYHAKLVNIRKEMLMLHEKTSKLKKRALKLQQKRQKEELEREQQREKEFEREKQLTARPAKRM
UniProt Q9Y679: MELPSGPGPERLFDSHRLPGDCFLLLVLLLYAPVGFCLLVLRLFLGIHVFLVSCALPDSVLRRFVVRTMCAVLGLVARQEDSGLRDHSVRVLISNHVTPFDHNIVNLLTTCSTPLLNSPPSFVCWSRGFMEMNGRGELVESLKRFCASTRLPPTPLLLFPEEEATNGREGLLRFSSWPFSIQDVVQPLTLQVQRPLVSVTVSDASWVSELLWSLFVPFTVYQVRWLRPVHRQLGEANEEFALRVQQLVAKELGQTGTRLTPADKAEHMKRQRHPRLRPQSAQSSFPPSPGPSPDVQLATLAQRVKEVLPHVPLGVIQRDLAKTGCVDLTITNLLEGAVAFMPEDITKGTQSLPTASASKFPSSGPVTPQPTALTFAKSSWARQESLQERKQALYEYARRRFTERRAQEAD
UniProt Q99933: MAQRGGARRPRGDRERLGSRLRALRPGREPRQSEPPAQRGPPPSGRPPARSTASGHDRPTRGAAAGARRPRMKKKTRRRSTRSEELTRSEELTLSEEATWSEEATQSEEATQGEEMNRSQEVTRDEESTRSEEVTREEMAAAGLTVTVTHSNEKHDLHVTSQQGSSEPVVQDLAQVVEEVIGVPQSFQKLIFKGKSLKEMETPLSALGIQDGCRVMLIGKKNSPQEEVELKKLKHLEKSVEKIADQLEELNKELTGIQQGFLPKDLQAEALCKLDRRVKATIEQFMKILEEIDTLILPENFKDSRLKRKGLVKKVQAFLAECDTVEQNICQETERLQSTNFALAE
UniProt O15382: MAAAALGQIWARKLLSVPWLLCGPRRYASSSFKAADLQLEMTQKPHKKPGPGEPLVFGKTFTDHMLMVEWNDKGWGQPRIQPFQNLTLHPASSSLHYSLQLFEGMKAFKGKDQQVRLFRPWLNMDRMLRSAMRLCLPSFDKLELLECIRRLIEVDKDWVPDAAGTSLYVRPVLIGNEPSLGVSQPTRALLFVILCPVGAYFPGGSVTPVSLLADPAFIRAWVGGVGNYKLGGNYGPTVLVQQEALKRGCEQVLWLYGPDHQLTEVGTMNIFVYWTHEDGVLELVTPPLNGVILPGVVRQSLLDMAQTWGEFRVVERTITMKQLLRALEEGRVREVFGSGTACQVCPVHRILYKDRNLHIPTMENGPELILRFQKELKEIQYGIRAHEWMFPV
UniProt P61769, whole entry, looked up: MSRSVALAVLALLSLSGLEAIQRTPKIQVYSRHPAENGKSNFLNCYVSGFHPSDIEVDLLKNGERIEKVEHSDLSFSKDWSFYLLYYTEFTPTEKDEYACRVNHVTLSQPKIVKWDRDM
UniProt P53004: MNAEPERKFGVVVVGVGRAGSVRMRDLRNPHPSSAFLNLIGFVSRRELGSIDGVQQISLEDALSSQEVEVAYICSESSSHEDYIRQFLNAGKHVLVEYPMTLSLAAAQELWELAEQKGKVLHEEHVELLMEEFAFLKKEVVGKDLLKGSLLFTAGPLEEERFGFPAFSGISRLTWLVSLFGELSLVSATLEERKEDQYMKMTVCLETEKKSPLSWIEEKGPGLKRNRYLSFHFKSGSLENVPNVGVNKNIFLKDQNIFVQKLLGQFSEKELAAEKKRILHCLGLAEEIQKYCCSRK
UniProt Q92934: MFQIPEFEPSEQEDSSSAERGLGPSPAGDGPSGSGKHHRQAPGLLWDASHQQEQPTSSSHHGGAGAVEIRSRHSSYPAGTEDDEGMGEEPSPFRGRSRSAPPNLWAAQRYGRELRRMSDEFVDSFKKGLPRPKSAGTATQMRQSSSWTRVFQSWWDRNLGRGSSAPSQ
UniProt Q9BX63: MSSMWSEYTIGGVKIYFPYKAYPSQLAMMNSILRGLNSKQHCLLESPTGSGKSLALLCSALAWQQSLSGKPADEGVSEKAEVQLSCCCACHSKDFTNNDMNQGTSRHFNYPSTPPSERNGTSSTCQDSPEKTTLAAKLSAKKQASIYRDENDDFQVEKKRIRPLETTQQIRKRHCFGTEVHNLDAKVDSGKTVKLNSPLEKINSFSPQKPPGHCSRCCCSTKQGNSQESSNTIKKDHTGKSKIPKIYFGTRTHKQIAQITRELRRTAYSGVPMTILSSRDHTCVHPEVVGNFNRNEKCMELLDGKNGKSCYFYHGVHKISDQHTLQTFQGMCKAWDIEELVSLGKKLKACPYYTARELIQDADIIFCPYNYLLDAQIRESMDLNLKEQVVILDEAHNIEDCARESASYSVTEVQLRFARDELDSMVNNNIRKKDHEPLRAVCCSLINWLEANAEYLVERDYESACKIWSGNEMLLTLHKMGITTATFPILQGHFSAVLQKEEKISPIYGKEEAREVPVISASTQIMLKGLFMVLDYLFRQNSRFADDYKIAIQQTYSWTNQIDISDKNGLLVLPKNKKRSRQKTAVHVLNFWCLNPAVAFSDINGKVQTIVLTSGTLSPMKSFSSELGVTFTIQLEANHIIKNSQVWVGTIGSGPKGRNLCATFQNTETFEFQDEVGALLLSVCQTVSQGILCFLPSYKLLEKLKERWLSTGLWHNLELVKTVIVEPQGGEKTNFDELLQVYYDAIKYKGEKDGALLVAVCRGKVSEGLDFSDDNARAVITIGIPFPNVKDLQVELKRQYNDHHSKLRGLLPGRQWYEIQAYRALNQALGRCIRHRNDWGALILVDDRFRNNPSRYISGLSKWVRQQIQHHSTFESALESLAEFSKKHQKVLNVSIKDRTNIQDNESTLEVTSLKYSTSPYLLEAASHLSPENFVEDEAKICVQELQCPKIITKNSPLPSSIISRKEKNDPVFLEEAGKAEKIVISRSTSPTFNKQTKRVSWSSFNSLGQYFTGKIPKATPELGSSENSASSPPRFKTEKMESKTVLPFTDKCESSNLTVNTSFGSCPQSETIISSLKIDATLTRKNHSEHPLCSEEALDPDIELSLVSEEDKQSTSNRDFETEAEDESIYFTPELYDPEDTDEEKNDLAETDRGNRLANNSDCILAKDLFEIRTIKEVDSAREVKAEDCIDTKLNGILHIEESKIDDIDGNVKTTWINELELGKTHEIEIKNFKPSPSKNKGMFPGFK
UniProt Q07812, whole entry, looked up: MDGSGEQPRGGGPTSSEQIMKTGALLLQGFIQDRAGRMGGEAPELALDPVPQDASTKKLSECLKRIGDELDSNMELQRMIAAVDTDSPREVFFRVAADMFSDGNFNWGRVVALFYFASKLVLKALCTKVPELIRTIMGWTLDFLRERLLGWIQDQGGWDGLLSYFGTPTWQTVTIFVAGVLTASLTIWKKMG
UniProt P56945: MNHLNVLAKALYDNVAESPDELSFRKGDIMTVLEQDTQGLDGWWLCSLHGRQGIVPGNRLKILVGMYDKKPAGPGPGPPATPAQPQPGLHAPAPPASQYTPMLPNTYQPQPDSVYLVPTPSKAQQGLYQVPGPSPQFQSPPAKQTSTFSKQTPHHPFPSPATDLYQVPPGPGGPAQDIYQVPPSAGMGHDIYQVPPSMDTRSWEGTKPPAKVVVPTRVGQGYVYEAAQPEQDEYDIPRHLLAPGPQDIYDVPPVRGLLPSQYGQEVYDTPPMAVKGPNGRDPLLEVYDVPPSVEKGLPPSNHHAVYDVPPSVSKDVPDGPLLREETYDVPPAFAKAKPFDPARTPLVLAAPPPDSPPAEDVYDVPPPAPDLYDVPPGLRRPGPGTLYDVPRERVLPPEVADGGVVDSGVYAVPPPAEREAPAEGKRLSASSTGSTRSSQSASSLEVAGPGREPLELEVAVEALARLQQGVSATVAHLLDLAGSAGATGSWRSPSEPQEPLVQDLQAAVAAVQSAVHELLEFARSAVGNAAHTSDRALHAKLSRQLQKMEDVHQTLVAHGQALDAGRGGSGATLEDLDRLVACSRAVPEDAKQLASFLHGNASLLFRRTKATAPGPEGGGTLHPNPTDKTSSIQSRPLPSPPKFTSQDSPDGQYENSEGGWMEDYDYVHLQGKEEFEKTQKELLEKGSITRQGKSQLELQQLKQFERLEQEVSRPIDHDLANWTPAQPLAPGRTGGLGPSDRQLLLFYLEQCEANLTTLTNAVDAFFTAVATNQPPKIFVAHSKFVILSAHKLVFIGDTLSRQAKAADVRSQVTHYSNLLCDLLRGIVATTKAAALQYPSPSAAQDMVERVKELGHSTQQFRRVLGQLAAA
UniProt O95999: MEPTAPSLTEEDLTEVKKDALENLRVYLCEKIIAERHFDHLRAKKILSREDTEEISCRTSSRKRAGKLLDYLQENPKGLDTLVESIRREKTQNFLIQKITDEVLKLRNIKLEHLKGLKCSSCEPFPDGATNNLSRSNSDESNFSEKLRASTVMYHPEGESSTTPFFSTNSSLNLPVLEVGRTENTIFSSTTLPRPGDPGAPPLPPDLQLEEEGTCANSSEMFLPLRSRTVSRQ

Experiments:
Assay in all cases: log2 fold change, soluble protein after heating vs DMSO (PISA); higher = thermal stabilisation; K562 cells, 10 uM, 30 min; active = over 0.2 and 3.5 SD of the protein, either way, in both replicates (recomputed)
erlotinib = compound: C#Cc1cccc(Nc2ncnc3cc(OCCOC)c(OCCOC)cc23)c1 [erlotinib]
In short: (§1)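 Soluble protein was defined as the supernatant after 21,000xg for 90 min. It came from K562 cells at 2×10^6 cells/mL given 10 μM compound for 30 min, heated in aliquots for 3 min across 48°C-58°C, pooled, and extracted in PBS with 0.5% NP-40 at 4°C, and was quantified by TMTpro 16plex LC-MS/MS with equalised channel sums. Thermal stability against control samples, from duplicates, is reported as log2 fold change.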

[1] = compound: C/C(=N\NC(=O)C1=CC(=CC=C1)S(=O)(=O)N2CCOCC2)/C3=C(C=CC(=C3)Cl)O
In short: as §1

[2] = compound: C1=CC(=C(C=C1Cl)C2=NC3=NC=CN=C3C(=N2)NC4=CC=NC=C4)F
In short: as §1

[3] = compound: C1=CC(=CC=C1C2=NC3=C(N2)C=C(C=C3)C(=O)N)OC4=CC=C(C=C4)Cl
In short: as §1

[4] = compound: C1=CC2=C(C=CC(=C2)/C=C\3/C(=O)NC(=NCC4=CC=CS4)S3)N=C1
In short: as §1

[5] = compound: C1=CC2=NC=CN=C2C=C1/C=C/3\C(=O)NC(=O)S3
In short: as §1

[6] = compound: C1=CC=C(C=C1)C2=NC(=C(N2)C3=CC=NC=C3)C4=CC(=C(C=C4)Cl)O
In short: as §1

[7] = compound: C1=CC=C2C(=C1)C3=NNC4=CC=CC(=C43)C2=O
In short: as §1

[8] = compound: C1CCN(C1)C(=O)NC2=CC=CC(=C2)NC3=NC=C(C(=N3)NCCC4=CN=CN4)Br
In short: as §1

[9] = compound: C1CN(CCC1(CC2=CC=C(C=C2)Cl)N)C3=NC=NC4=C3C=CN4
In short: as §1

Measured: log2 fold change

BLOC1S2 (UniProt Q6QNY1)
inactive: erlotinib 0 | [1] -0.06 | [2] 0.045 | [3] 0.001 | [4] 0.177 | [5] 0.052 | [6] 0.01 | [7] -0.036 | [8] -0.189 | [9] 0.181

BIRC2 (UniProt Q13490)
inactive: erlotinib 0.032 | [1] -0.003 | [2] 0.004 | [3] 0.009 | [4] 0.108 | [5] -0.023 | [6] -0.093 | [7] -0.029 | [8] 0.052 | [9] 0.058

BAG5 isoform 2 (UniProt Q9UL15)
inactive: erlotinib -0.009 | [1] 0.105 | [2] 0.031 | [3] -0.115 | [4] 0.079 | [5] 0.051 | [6] 0.098 | [7] 0.015 | [8] 0.004 | [9] -0.056

BOD1L1 (UniProt Q8NFC6)
inactive: erlotinib -0.001 | [1] -0.023 | [2] -0.115 | [3] -0.005 | [4] -0.034 | [5] -0.046 | [6] -0.047 | [7] -0.04 | [8] -0.064 | [9] -0.092

BAG4 (UniProt O95429)
inactive: erlotinib 0.001 | [1] -0.029 | [2] -0.049 | [3] 0.039 | [4] 0.068 | [5] -0.019 | [6] -0.033 | [7] -0.035 | [8] 0.055 | [9] -0.034

BIRC5 (UniProt O15392)
inactive: erlotinib -0.061 | [1] -0.039 | [2] -0.051 | [3] 0.044 | [4] -0.022 | [5] 0.065 | [6] -0.057 | [7] -0.109 | [8] 0.072 | [9] 0.071

BAP1 (UniProt Q92560)
inactive: erlotinib 0.182 | [1] -0.013 | [2] -0.142 | [3] -0.048 | [4] -0.128 | [5] 0.06 | [6] -0.104 | [7] -0.05 | [8] -0.078 | [9] -0.088

BAG6 isoform 3 (UniProt P46379)
inactive: erlotinib -0.041 | [1] 0.056 | [2] 0.034 | [3] -0.036 | [4] -0.02 | [5] 0.035 | [6] -0.016 | [7] -0.043 | [8] -0.014 | [9] -0.122

BRD8 (UniProt Q9H0E9)
inactive: erlotinib -0.057 | [1] -0.036 | [2] -0.067 | [3] 0.068 | [4] -0.005 | [5] 0.037 | [6] -0.074 | [7] -0.064 | [8] 0.016 | [9] -0.058

BLOC1S3 (UniProt Q6QNY0)
inactive: erlotinib 0.027 | [1] -0.009 | [2] 0.04 | [3] -0.003 | [4] 0.093 | [5] 0.012 | [6] 0.031 | [7] -0.052 | [8] -0.032 | [9] 0.052

B3GNT2 (UniProt Q9NY97)
inactive: erlotinib -0.073 | [1] 0.008 | [2] 0 | [3] 0.057 | [4] 0.065 | [5] 0.016 | [6] 0.054 | [7] 0.009 | [8] -0.133 | [9] 0.037

BRI3BP (UniProt Q8WY22)
inactive: erlotinib 0.069 | [1] 0.125 | [2] -0.103 | [3] 0.06 | [4] 0.01 | [5] 0.02 | [6] 0.039 | [7] -0.082 | [8] -0.162 | [9] 0.054

BCAP29 isoform 2 (UniProt Q9UHQ4)
inactive: erlotinib -0.02 | [1] 0.002 | [2] 0.077 | [3] 0.062 | [4] -0.026 | [5] 0.086 | [6] -0.034 | [7] 0.038 | [8] 0.062 | [9] -0.022

BCL2L13 (UniProt Q9BXK5)
inactive: erlotinib 0.013 | [1] 0.013 | [2] 0.059 | [3] 0.012 | [4] 0.005 | [5] 0.031 | [6] 0.004 | [7] 0 | [8] 0.029 | [9] -0.002

BLOC1S6 (UniProt Q9UL45)
inactive: erlotinib -0.005 | [1] 0.017 | [2] 0.047 | [3] 0.099 | [4] -0.026 | [5] 0.103 | [6] -0.03 | [7] -0.035 | [8] 0.027 | [9] 0.009

AUP1 (UniProt Q9Y679)
inactive: erlotinib 0.018 | [1] 0.055 | [2] 0.068 | [3] 0.049 | [4] 0.006 | [5] 0.055 | [6] 0.078 | [7] 0.004 | [8] -0.031 | [9] -0.018

BAG1 (UniProt Q99933)
inactive: erlotinib -0.015 | [1] -0.001 | [2] 0.005 | [3] 0.009 | [4] 0.054 | [5] 0.032 | [6] -0.022 | [7] 0.074 | [8] -0.024 | [9] 0.038

BCLAF1 (UniProt Q9NYF8)
inactive: erlotinib 0.036 | [1] 0.075 | [2] -0.046 | [3] 0.082 | [4] -0.304 | [5] -0.018 | [6] 0.143 | [7] -0.063 | [8] -0.089 | [9] -0.15

BCAT2 (UniProt O15382)
inactive: erlotinib 0.03 | [1] -0.02 | [2] 0.056 | [3] 0.021 | [4] -0.033 | [5] 0.04 | [6] -0.038 | [7] 0.03 | [8] 0.017 | [9] 0

B2M (UniProt P61769)
inactive: erlotinib -0.049 | [1] 0.03 | [2] -0.008 | [3] -0.073 | [4] 0.065 | [5] 0.001 | [6] 0.029 | [7] -0.048 | [8] -0.099 | [9] -0.02

BLVRA (UniProt P53004)
inactive: erlotinib 0.03 | [1] 0.045 | [2] 0.055 | [3] 0.037 | [4] 0.026 | [5] 0.003 | [6] 0.011 | [7] 0.023 | [8] 0.039 | [9] 0.027

BECN1 (UniProt Q14457)
inactive: erlotinib -0.007 | [1] -0.035 | [2] 0.043 | [3] -0.042 | [4] -0.001 | [5] 0.085 | [6] -0.043 | [7] 0.008 | [8] 0.002 | [9] -0.042

BAD (UniProt Q92934)
inactive: erlotinib 0.049 | [1] 0.079 | [2] 0.022 | [3] 0.124 | [4] 0.083 | [5] 0.023 | [6] 0.01 | [7] 0.025

B3GNTL1 (UniProt Q67FW5)
inactive: erlotinib 0.216 | [1] -0.011 | [2] -0.077 | [3] -0.021 | [4] 0.099 | [5] 0.032 | [6] -0.051 | [7] -0.101 | [8] 0.036 | [9] 0.05

BCL2L12 (UniProt Q9HB09)
inactive: erlotinib -0.041 | [1] 0.128 | [2] 0.087 | [3] 0.08 | [4] 0.014 | [5] -0.219 | [6] 0.018 | [7] -0.098

BRIP1 (UniProt Q9BX63)
inactive: erlotinib -0.009 | [1] 0.076 | [2] -0.153 | [3] 0.018 | [4] 0.075 | [5] -0.082 | [6] -0.048 | [7] 0.023 | [8] -0.064 | [9] -0.045

BAX isoform 2 (UniProt Q07812)
inactive: erlotinib 0.018 | [1] -0.019 | [2] 0.017 | [3] -0.005 | [4] -0.037 | [5] 0.019 | [6] -0.002 | [7] 0.052 | [8] -0.079 | [9] 0.042

BCAR1 isoform 6 (UniProt P56945)
inactive: erlotinib 0.085 | [1] -0.214 | [2] 0.037 | [3] 0.045 | [4] 0.078 | [5] 0.008 | [6] -0.068 | [7] -0.038 | [8] 0.011 | [9] 0.112

AVL9 (UniProt Q8NBF6)
inactive: erlotinib 0.051 | [1] 0.071 | [2] 0.085 | [3] 0.035 | [4] 0.067 | [5] 0 | [6] -0.005 | [7] 0.003 | [8] 0.013 | [9] 0.019

BCL10 (UniProt O95999)
inactive: erlotinib 0.1 | [1] 0.016 | [2] -0.002 | [3] -0.002 | [4] -0.001 | [5] 0.041 | [6] 0.001 | [7] -0.014 | [8] -0.027 | [9] -0.139
